From PubChem BioAssay AID504834 (National Center for Advancing Translational Sciences (NCATS), 2011)
Among all 320,000 compounds or so, about 22,000 (6.9%) were called active. Inconclusive means that the source gave no clear call. Such entries were picked first, then a sample of the others. Calls come from the whole dose curve; as a rule, active = well fitted inhibition curve with a large enough effect; inconclusive = small, poorly fitted or top-dose-only effect, or another doubt; inactive = no such curve, though single readings can be large or run the other way. A potency beside an inconclusive call is a rough fit, not a confirmed value.

Assay: Primary qHTS for delayed death inhibitors of the malarial parasite plastid, 96 hour incubation
Conditions: P. falciparum luciferase reporter growth; series mostly up to 28.7 µM
Outline: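 Compounds incubated with erythrocytes infected by luciferase-expressing P. falciparum (2% hematocrit, 0.05% parasitemia final) for 96 hours, 37 C in 5% CO2. Growth inhibition scored as decreased luciferase luminescence.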
% is set by controls: 0 for no effect and ±100 for the full control effect; potency is the fitted concentration of half-maximal effect.

Compound	Potency	activity change, negative = inhibition
Cc1ccc2c(c1)N(C(=O)CCC(=O)O)CCO2	inactive	
CC(=O)Nc1ccc(Br)cc1C(=O)C(=O)O	inactive	
O=C(NC1=NCCS1)C1CC(=O)N(c2ccc(Cl)cc2)C1 (stereo unspecified)	inactive	
COc1ccc(-c2sc(Nc3ccccc3)n[n+]2-c2ccc(F)cc2)c(C)c1C	active: 10.4 µM	
CC[C@@]1(O)C(=O)OCc2c1cc1n(c2=O)Cc2cc3ccccc3nc2-1	inconclusive: 1.17 µM [inhibitor, full curve, poor fit]	
O=C(COC(=O)/C=C/c1ccccc1)NCCC1=CCCCC1	inactive	
Nn1c(SCC(=O)Nc2ccccc2)nnc1-c1cccnc1	inactive	
O=C(OCc1ccco1)c1ccc(S(=O)(=O)N2CCCCC2)cc1	inconclusive: 10.4 µM [inhibitor, partial curve]	
O=C(Nc1cccc(-c2cccc(F)c2)c1)C1CCN(Cc2ccco2)CC1	inactive	
Cc1ccc(CCNS(=O)(=O)c2cc3c(cc2Cl)NC(=O)CO3)cc1	inconclusive: 18.5 µM [inhibitor, single point]	
CCn1ncc(Br)c1C(=O)Nc1ccc(-c2ccno2)cc1	inconclusive: 18.5 µM [inhibitor, single point]	
CCOC(=O)C1=C(O)CCn2c1nc1ccccc12	inactive	
c1ccc(CCN2CCC(N3CCN(c4ccccc4)CC3)CC2)cc1	inconclusive: 10.4 µM [inhibitor, single point]	
COc1cccc(-c2ccc3ncnc(NCc4cc(C)cs4)c3c2)c1	active: 4.15 µM	
CCOC(=O)C1=C(C)Nc2ccccc2N/C1=N\S(=O)(=O)c1ccccc1	inconclusive: 0.522 µM [inhibitor, full curve, poor fit]	
CCOc1cc(/C=C2\SC(=Nc3ccc(F)cc3)N(c3ccc(F)cc3)C2=O)ccc1OCC(=O)O	inconclusive: 4.15 µM [inhibitor, partial curve, poor fit]	
O=c1cc(N2CCCCC2)c(-c2ccccc2)nn1Cc1ccc(Cl)cc1Cl	inconclusive: 1.65 µM [inhibitor, full curve]	
CCC(=O)Nc1sc(C(=O)Nc2ccccc2F)c(C)c1C(=O)OC	active: 2.08 µM	
N#CC1=C(N)Nc2nc3ccccc3n2C1c1ccc(F)cc1 (stereo unspecified)	inconclusive: 2.33 µM [inhibitor, partial curve, poor fit]	
CC(C)(C)c1ccc(-c2noc(-c3ccno3)n2)cc1	inactive	
CCOC(=O)c1c(NC(=O)C2c3ccccc3Oc3ccccc32)sc(C(C)=O)c1C	inconclusive: 1.47 µM [inhibitor, partial curve, poor fit]	
O=C(Nc1ccccn1)c1ccc(Br)c(S(=O)(=O)N2CCCCC2)c1	inconclusive: 6.57 µM [inhibitor, partial curve, poor fit]	
O=C(NN1C(=O)c2ccc3c4c(ccc(c24)C1=O)CC3)c1ccc(Br)cc1	inactive	

Compound	Potency	activity change, negative = inhibition
CCOc1ccc(NC(=O)COC(=O)Cn2cnnn2)cc1OCC	inconclusive: 2.08 µM [inhibitor, single point]	
C=CCn1c(=O)c2c(nc3n2CCN3c2cccc(Cl)c2C)n(C)c1=O	inconclusive: 10.4 µM [inhibitor, partial curve]	
CCOc1ncccc1C(=O)NNC(=O)c1ccccc1-n1cccc1	inactive	
S=c1[nH]nc(-c2ccncc2)n1/N=C/c1ccccc1	inconclusive: 11.7 µM [inhibitor, partial curve, poor fit]	
CCC(NC(=O)c1ccccc1Br)c1ccccc1 (stereo unspecified)	inactive	
CCc1ccc(OCCOC(=O)Nc2ccccc2)cc1	inconclusive: 11.7 µM [inhibitor, single point]	
O=S(=O)(O)c1ccc(N2N=C(c3ccccc3)CC2c2ccccc2)cc1 (stereo unspecified)	inconclusive: 11.7 µM [inhibitor, single point]	
O=C(Nc1nnc(SCC(=O)N2CCCC2)s1)C1CC(=O)N(c2ccccc2)C1 (stereo unspecified)	inconclusive: 10.4 µM [inhibitor, partial curve, poor fit]	
C(=Nc1ccc(N2CCOCC2)cc1)c1c[nH]c2ccccc12	inactive	
CCOC(=O)c1c(C)nn(-c2ccc(NC(=O)c3c(C)noc3C)cc2)c1C	inactive	
Nc1ccc(Oc2ccc3nc(-c4ccccc4)c(-c4ccccc4)nc3c2)cc1	inconclusive: 10.4 µM [inhibitor, partial curve, poor fit]	
Cc1cccc(NC(=O)NC(C)CCc2ccccc2)c1 (stereo unspecified)	inconclusive: 18.5 µM [inhibitor, single point]	
CCN(CC)CCOC(=O)c1ccc(NC(=O)CNC(=O)c2ccccc2)cc1	inconclusive: 7.38 µM [inhibitor, partial curve, poor fit]	
Cc1ccc(OCC(=O)OC(C)CN2CCCCC2)cc1 (stereo unspecified)	inconclusive: 18.5 µM [inhibitor, single point]	
COC(=O)C1=C(c2ccc(-c3ccccc3)c(F)c2)C[C@@H]2CC[C@H]1N2C(=O)NCCO	inactive	
COCCn1nc2cc(C(=O)NCC34CC5CC(CC(C5)C3)C4)ccc2c1OC	inactive	
COc1ccc(S(=O)(=O)NC2CC(C)(C)NC(C)(C)C2)c2ccccc12	inactive	
CCCOc1ccc(C2C(C(=O)c3cc4ccccc4o3)=C(O)C(=O)N2c2cc(C)on2)cc1OC (stereo unspecified)	inconclusive: 13.1 µM [inhibitor, partial curve, poor fit]	
O=C(Cc1cccc(C(F)(F)F)c1)Nc1cccc(S(=O)(=O)N2CCCC2)c1	inconclusive: 14.7 µM [inhibitor, partial curve, poor fit]	
CC(NC(=O)c1ccc(CS(C)(=O)=O)cc1)c1ccc(-n2ccnc2)cc1 (stereo unspecified)	inconclusive: 0.465 µM [inhibitor, full curve, poor fit]	
CC1CCN(C(=O)Nc2cccc(NC(=O)N3CCC(C)CC3)c2)CC1		inactive: -23.2% [at 5.75 µM]
CCc1nn(CC(=O)NCCCN2CCOCC2)c(=O)c2cc3cc(F)ccc3n12	inconclusive: 16.5 µM [inhibitor, single point]	
CC(=O)Nc1cccc(C(=O)NC2CCCc3c2cnn3-c2cc(C)cc(C)c2)c1 (stereo unspecified)	inconclusive: 10.4 µM [inhibitor, single point]	

An excerpt from above in order of number of heavy atoms, ascending:
Compound	Potency	activity change, negative = inhibition
O=S(=O)(O)c1ccc(N2N=C(c3ccccc3)CC2c2ccccc2)cc1 (stereo unspecified)	inconclusive: 11.7 µM [inhibitor, single point]	
CCN(CC)CCOC(=O)c1ccc(NC(=O)CNC(=O)c2ccccc2)cc1	inconclusive: 7.38 µM [inhibitor, partial curve, poor fit]	
CC(=O)Nc1cccc(C(=O)NC2CCCc3c2cnn3-c2cc(C)cc(C)c2)c1 (stereo unspecified)	inconclusive: 10.4 µM [inhibitor, single point]	
